No constants are given. Whether binding was seen depends on the method and setting. Binding seen in cells or lysates may run through a third protein. Here binding means that the protein was enriched with, or labelled near, the bait; the list need not be complete.
Target: wild-type tnni2-GFP fusion protein (troponin I type 2, skeletal, fast) (UniProt P13412)
Assay: affinity purification with mass spectrometry; 20 mg nuclear extract of 293T tnni2 wild-type-GFP stable cells incubated with agarose beads coupled with an anti-GFP antibody, 4°C, 4 hours; washed three times with buffer C (10 mM HEPES pH 7.9, 500 mM NaCl, 0.1 mM EDTA, 0.1 mM EGTA, 0.1% NP40, 10% glycerol); IP products analysed by mass spectrometry

By UniProt entry, the sequences of proteins in these tests, tags left out.
UniProt P13412: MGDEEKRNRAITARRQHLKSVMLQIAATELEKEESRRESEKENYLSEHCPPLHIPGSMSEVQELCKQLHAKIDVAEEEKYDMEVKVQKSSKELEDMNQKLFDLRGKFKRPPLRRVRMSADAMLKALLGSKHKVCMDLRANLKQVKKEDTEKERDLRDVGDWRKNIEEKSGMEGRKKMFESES
UniProt O00410: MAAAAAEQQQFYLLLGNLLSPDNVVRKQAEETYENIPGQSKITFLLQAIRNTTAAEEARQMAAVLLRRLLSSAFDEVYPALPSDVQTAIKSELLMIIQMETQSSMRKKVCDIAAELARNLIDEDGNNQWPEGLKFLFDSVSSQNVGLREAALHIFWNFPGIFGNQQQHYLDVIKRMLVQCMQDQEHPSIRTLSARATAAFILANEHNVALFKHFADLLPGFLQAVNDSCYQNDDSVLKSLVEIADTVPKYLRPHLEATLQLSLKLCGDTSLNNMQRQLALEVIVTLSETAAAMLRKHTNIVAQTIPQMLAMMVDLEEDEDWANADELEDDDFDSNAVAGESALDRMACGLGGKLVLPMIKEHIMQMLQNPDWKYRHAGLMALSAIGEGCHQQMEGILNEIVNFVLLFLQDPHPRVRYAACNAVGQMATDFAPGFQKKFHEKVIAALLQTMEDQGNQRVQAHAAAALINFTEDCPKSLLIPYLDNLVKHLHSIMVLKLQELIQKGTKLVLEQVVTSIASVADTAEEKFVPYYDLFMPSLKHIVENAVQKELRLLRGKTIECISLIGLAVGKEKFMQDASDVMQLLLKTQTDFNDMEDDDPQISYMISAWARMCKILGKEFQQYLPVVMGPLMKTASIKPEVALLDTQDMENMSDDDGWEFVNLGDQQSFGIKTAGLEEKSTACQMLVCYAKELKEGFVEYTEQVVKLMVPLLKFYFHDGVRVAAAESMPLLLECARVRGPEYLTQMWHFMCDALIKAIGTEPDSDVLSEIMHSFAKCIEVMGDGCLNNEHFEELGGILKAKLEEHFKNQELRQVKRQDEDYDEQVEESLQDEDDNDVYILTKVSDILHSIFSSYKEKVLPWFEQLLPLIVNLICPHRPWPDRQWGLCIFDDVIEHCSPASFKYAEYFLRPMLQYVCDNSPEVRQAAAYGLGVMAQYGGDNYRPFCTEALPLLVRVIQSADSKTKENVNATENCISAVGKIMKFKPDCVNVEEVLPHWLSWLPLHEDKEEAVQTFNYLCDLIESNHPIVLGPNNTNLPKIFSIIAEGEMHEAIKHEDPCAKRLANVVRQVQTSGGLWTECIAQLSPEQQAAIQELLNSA
UniProt O15397: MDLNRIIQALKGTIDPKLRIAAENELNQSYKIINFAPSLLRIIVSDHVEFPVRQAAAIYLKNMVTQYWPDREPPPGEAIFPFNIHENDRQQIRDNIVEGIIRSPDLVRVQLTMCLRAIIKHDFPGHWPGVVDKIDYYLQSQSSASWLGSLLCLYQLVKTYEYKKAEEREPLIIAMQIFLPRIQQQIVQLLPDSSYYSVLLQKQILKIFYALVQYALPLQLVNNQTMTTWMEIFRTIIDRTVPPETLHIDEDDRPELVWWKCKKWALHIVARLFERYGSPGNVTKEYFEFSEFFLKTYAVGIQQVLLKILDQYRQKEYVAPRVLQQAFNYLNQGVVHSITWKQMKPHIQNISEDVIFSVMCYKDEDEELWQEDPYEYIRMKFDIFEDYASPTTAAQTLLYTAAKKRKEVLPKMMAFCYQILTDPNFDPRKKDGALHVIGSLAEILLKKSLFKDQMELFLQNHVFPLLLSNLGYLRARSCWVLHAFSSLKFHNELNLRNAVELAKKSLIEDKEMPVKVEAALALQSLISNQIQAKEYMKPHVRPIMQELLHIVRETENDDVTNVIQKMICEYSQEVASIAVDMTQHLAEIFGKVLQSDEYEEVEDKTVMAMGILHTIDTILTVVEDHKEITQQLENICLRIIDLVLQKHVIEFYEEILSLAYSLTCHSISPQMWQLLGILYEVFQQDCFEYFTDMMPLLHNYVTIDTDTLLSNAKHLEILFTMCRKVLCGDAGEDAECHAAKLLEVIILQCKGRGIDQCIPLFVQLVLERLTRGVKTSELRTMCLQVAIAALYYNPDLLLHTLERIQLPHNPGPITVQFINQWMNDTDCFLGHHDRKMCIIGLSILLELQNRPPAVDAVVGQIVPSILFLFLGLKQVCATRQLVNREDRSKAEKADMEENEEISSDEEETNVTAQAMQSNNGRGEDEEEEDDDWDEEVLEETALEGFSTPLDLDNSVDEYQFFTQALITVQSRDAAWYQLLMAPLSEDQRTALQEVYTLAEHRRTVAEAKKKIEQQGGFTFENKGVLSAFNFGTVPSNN
UniProt Q14974: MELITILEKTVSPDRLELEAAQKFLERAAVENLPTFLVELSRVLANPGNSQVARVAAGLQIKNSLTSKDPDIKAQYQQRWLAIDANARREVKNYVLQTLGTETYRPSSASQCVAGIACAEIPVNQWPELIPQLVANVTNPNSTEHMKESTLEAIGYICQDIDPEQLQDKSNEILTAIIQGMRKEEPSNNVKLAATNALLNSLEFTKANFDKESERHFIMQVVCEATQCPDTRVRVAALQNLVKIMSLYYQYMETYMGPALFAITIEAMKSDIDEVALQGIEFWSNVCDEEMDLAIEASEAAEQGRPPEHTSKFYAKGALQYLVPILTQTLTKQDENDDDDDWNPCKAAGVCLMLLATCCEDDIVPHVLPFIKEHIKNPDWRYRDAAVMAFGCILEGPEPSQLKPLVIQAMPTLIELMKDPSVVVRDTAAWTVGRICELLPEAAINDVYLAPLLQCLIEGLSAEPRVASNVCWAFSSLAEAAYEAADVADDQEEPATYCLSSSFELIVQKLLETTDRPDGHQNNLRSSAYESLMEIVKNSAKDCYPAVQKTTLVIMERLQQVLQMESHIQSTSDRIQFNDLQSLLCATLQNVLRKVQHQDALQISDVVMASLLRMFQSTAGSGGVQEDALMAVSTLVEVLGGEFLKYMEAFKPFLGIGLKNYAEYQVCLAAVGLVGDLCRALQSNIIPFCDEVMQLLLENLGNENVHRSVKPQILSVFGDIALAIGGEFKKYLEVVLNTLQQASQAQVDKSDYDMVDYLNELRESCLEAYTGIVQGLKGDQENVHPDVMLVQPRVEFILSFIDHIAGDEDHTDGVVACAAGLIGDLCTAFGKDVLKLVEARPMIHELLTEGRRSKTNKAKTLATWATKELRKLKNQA
UniProt Q92973: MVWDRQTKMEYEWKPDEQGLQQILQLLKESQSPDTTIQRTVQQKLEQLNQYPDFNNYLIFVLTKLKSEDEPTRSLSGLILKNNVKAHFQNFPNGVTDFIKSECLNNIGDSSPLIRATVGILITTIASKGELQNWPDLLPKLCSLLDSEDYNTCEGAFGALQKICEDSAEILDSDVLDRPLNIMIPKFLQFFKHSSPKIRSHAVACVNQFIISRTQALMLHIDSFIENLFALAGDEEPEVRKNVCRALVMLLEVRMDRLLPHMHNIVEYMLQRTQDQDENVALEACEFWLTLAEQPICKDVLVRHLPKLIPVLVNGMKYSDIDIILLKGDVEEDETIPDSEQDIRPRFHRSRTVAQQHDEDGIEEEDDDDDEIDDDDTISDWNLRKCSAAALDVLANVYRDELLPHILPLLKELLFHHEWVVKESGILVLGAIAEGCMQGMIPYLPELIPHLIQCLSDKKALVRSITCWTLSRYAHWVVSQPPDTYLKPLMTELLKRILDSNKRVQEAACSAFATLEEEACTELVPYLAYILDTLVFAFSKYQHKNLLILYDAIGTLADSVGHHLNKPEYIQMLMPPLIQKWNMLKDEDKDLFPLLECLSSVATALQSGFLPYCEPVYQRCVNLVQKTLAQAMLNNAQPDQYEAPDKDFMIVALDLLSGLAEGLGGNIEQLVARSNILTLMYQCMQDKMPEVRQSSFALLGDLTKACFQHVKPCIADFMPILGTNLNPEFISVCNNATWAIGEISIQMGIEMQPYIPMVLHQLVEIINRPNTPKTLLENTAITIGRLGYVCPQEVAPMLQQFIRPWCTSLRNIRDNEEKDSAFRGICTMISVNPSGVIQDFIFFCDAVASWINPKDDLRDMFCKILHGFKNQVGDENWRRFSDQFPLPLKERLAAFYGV

IPO5 (from UniProt O00410 1-1097)
binding: binds

IPO8 (from UniProt O15397 1-1037)
binding: binds

KPNB1 (from UniProt Q14974 1-876)
binding: binds

TNPO1 (from UniProt Q92973 1-898)
binding: binds

B1: TNPO2 (protein, UniProt O14787 1-897)
chain: MDWQPDEQGLQQVLQLLKDSQSPNTATQRIVQDKLKQLNQFPDFNNYLIFVLTRLKSEDEPTRSLSGLILKNNVKAHYQSFPPPVADFIKQECLNNIGDASSLIRATIGILITTIASKGELQMWPELLPQLCNLLNSEDYNTCEGAFGALQKICEDSSELLDSDALNRPLNIMIPKFLQFFKHCSPKIRSHAIACVNQFIMDRAQALMDNIDTFIEHLFALAVDDDPEVRKNVCRALVMLLEVRIDRLIPHMHSIIQYMLQRTQDHDENVALEACEFWLTLAEQPICKEVLASHLVQLIPILVNGMKYSEIDIILLKGDVEEDEAVPDSEQDIKPRFHKSRTVTLPHEAERPDGSEDAEDDDDDDALSDWNLRKCSAAALDVLANVFREELLPHLLPLLKGLLFHPEWVVKESGILVLGAIAEGCMQGMVPYLPELIPHLIQCLSDKKALVRSIACWTLSRYAHWVVSQPPDMHLKPLMTELLKRILDGNKRVQEAACSAFATLEEEACTELVPYLSYILDTLVFAFGKYQHKNLLILYDAIGTLADSVGHHLNQPEYIQKLMPPLIQKWNELKDEDKDLFPLLECLSSVATALQSGFLPYCEPVYQRCVTLVQKTLAQAMMYTQHPEQYEAPDKDFMIVALDLLSGLAEGLGGHVEQLVARSNIMTLLFQCMQDSMPEVRQSSFALLGDLTKACFIHVKPCIAEFMPILGTNLNPEFISVCNNATWAIGEICMQMGAEMQPYVQMVLNNLVEIINRPNTPKTLLENTGRLTSPSAIPAITIGRLGYVCPQEVAPMLQQFIRPWCTSLRNIRDNEEKDSAFRGICMMIGVNPGGVVQDFIFFCDAVASWVSPKDDLRDMFYKILHGFKDQVGEDNWQQFSEQFPPLLKERLAAFYGV
binding: binds

Source: PMC4207604
